Five substances from publication PMC8829429 can be followed below.

Sequences of proteins named here, by UniProt entry; tags and fusion partners are left off. A change or cut given only in a name is not applied to a line headed by its entry.
UniProt Q7EUC6: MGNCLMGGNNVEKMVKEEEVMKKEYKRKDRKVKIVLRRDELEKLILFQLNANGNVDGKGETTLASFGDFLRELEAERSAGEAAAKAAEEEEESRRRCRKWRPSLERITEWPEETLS

Experiment [1] has as its target T1, ACO1-MYC (Arabidopsis) (UniProt Q42560).
T1 sequence: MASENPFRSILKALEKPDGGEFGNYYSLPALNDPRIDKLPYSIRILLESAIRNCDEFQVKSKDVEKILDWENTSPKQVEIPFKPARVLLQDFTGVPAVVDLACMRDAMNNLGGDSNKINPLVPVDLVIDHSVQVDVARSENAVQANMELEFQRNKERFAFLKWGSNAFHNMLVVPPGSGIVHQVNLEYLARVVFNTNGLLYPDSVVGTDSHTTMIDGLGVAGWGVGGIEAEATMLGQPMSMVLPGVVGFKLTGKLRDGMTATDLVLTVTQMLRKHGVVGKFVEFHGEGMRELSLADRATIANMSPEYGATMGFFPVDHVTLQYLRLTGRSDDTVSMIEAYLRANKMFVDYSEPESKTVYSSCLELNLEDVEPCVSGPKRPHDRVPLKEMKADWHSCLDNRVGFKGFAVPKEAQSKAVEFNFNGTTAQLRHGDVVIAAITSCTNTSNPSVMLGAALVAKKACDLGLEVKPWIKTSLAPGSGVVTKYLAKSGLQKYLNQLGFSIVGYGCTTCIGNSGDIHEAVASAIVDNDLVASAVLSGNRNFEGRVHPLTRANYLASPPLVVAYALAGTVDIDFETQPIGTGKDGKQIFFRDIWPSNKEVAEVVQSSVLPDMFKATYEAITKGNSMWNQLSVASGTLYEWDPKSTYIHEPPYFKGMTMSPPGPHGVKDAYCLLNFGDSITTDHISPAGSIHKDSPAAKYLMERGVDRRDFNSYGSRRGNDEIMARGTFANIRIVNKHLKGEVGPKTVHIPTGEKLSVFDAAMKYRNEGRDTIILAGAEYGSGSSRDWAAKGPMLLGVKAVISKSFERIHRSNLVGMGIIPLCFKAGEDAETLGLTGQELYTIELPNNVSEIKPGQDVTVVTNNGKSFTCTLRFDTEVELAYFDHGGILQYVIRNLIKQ
Briefly: co-IP; cell lysate (10 mM Tris-HCl pH 7.5, 150 mM NaCl, 0.5 mM EDTA, 0.5% NP-40) on MYC-Trap magnetic agarose beads, 4°C, 2 h; blots with anti-MYC and anti-GFP.

In experiment [2] the target is T2, ACO3 of the CoIP assay (Arabidopsis) (UniProt Q9SIB9).
T2 sequence: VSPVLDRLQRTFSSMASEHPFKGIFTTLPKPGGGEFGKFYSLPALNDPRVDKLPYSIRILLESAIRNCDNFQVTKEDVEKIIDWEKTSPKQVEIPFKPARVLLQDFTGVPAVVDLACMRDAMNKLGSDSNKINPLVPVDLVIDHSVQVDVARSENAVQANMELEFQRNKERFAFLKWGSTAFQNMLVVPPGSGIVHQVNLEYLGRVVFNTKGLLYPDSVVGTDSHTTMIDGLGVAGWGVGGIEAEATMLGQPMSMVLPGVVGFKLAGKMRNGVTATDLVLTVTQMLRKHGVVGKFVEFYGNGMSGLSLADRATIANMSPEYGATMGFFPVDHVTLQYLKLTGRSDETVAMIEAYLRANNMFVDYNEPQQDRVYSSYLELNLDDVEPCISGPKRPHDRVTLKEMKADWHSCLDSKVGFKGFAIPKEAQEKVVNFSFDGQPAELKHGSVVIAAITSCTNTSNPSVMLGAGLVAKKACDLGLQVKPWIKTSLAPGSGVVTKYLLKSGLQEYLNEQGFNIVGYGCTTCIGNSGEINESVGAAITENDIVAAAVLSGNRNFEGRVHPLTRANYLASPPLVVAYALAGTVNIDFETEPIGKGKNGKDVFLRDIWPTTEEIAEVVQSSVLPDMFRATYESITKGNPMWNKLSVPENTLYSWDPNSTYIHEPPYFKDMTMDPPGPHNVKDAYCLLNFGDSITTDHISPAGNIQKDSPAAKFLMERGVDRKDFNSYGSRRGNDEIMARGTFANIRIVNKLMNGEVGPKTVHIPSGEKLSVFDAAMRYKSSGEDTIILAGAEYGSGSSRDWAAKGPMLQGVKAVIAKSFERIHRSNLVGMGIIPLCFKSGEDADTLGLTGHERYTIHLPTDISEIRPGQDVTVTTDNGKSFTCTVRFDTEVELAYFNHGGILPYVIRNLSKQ
Described as above.

For experiment [3], the target named is T3, ACO2 of the CoIP assay (Arabidopsis) (UniProt Q94A28).
T3 sequence: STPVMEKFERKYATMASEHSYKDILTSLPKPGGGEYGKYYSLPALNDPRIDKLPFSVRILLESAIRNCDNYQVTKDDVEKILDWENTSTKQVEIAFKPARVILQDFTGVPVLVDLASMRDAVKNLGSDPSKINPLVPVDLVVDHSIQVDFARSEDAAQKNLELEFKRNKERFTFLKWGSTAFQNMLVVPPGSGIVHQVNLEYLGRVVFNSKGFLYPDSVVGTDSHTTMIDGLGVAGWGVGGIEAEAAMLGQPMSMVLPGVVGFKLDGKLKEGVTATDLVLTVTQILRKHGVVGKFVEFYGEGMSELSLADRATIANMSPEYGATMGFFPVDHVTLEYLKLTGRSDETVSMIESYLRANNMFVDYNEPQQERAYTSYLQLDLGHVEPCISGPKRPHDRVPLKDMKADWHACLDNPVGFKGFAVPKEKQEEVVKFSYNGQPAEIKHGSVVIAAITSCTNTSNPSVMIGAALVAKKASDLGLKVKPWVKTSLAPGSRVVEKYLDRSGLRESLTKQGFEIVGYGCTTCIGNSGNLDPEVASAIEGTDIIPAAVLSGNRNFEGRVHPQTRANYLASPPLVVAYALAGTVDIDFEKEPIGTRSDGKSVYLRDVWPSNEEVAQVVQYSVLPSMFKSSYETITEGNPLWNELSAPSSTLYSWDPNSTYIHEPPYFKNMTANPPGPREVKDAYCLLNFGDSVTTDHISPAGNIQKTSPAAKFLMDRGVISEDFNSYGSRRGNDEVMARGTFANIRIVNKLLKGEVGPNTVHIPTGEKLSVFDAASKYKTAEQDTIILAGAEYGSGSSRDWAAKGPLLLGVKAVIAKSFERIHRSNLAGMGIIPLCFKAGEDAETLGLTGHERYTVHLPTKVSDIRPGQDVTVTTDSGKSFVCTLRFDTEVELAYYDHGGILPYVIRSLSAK
The experiment is described as above.

For experiment [4], the target named is T4, ACO1-cLUC (ACO1 634-899 aa) (Arabidopsis) (UniProt Q42560).
T4 sequence: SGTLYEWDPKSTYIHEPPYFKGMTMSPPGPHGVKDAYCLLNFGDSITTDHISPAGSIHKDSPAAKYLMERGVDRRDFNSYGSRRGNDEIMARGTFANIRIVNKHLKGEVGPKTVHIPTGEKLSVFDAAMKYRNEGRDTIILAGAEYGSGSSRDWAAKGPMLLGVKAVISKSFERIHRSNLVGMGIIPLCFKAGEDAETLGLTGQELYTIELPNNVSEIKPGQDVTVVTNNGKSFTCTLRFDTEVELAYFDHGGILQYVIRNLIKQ
The experiment in a line: split reporter; luciferase complementation imaging: TZ1-nLUC and ACO (C-terminal)-cLUC co-expressed in N. benthamiana leaves for 48 h; 0.2 mM luciferin, CCD imaging.

The target of experiment [5] is Transition zone1 (TZ1) fused to the GAL4 DNA-binding domain (TZ1-BD) (Arabidopsis) (UniProt Q7EUC6). Briefly: two-hybrid; directed test: TZ1 (pGBKT7) as bait, C-terminal of ACO1 (pGADT7) as prey; Empty-AD as negative control.
In experiment [6] the target is T5, ACO1-GST (glutathione S-transferase-fused ACO1) (Arabidopsis) (UniProt Q42560).
T5 sequence: T1 sequence
The experiment in a line: pull-down; purified ACO-GST and TZ1-MBP with Glutathione Sepharose or Amylose Resin overnight at 4°C; washes in 25 mM HEPES pH 7.5, 150 mM NaCl, 1 mM DTT; blots with anti-GST or anti-MBP; both purified.

For experiment [7], the target named is Transition zone1 (TZ1) fused to the GAL4 DNA-binding domain (TZ1-BD) (Arabidopsis) (UniProt Q7EUC6). The experiment in a line: two-hybrid; library screen: TZ1-BD (pGBKT7) against a pre-transformed Arabidopsis root cDNA library; GAL4 Two-Hybrid System 3 (Clontech); SD-Trp-Leu-His for 2 days, then SD-Trp-Leu-His-Ade.

Results are given in words; binding and its absence hold for the method and conditions named. A result given as binding can be weak or reduced; the word gives no strength. For some of these results: Sequences can lack the tags named with a protein. For some of these results: In cells and extracts the contact can be indirect.

Take TZ1-YFP (from UniProt Q7EUC6): the binding entry in experiment [1], in experiment [2] and in experiment [3] was “binds” throughout.

With TZ1-nLUC (Arabidopsis), in experiment [4], the binding entry is given as “binds”.

Regarding “C-terminal of ACO1 in pGADT7 (from UniProt Q42560) (domain or fragment)”, the binding entry in experiment [5] was “binds”.

For the substance “TZ1-MBP (maltose-binding protein-fused TZ1) (from UniProt Q7EUC6)”, in experiment [6], the binding result is “binds”.

“aconitase1 (ACO1) (C-terminal) fragment from the Arabidopsis root cDNA library (from UniProt Q42560) (domain or fragment)”: the binding result in experiment [7] was “binds”.
